Reference: publication PMC10163288
Some of the results follow.

B1: il10ra_site1_sap_16_mot_HHH_b2_07144_000000289_0001_1_18_H_._HHH_b2_05176_0001_0000100005_0000001_0_0001 (protein)
chain: SSSSDEANERVWELIRRVLELLAEGNPEEAREVLEEAHEIAEENNNRLLQIQIEFLERDLDSSSS
B2: il10ra_site1_normal_mot_e1dd4851c59bc1cdde016f988f6856bd_0001_1_000000200_0001_16_31_H_._HHH_b1_02795_0001_0000100003_0000001_1_af2pred_0001 (protein)
chain: SSSSSETEKLVREIAKLLHQLLREGNPEEAEKLTKEAEEELEELGDEEAVRMLRVILKLAISSSS
B3: il10ra_site1_normal_mot_fda5df8c19bda1ddfcc41857df859eb0_0001_1_000000120_0001_35_49_H_._HEEHE_1459_0001_0000300017_0000001_0_af2pred_dldesign_0_af2pred (protein)
chain: SKEDKMKLAFERLAAQAGVPRFTVEVKDGKATVTLTGDAAAVAAARTAIEAAAELMQVEIEITVE
B4: il10ra_site1_normal_mot_HHH_b2_00273_000000062_0001_23_39_H_._HHH_b2_06821_0001_0000300032_0000001_0 (protein)
chain: SSSSEIEEFIEEVEERVRELVERGDTEEALQLLWEAAKLVAENNDEEALRILMELLRLVFRSSSS
B5: il10ra_site1_sap_21_mot_HHH_b2_00800_af2_000000047_0001_1_20_H_._HHH_b2_03457_af2_0001_0000400023_0000001_0_0001 (protein)
chain: SSSSDEWYEKLKKLIEEIVKAERNNDPELVEELLKELEELIEQRNDWAARFDLELLERAHSSSSS
B6: il10ra_site1_normal_mot_HHH_b1_05056_000000217_0001_1_20_H_._HHH_b1_06984_0001_0000200007_0000002_0 (protein)
chain: SSSSDRVEELLEEAEEAAERGDEERALELLLEATHFALQLGDPELLQEVWEVVKEVERLLSSSSS
B7: il10ra_site1_normal_mot_HHH_b2_00984_000000042_0001_1_20_H_._HHH_b1_07795_af2_0001_0000700037_0000002_0 (protein)
chain: SSSSDEEERVEELLEELEELLKRNDEEEFSRVAQEAVRLAFRAGNAELLREIWELIRKLRSSSSS
B8: il10ra_site1_normal_mot_HHH_b1_02397_af2_000000085_0001_39_57_H_._HHH_b1_02630_0001_0000200012_0000001_0 (protein)
chain: SSSSDEEEEEVRRLLEEIEKLIEEGDPEKVARLLIEVLRLVFQIGNDELIQEVWRLAKLIASSSS
B9: il10ra_site1_normal_mot_HHH_b2_07006_000000108_0001_1_19_H_._HHH_b2_03086_0001_0000200010_0000001_0_af2pred_0001 (protein)
chain: SSSSSDEEEVRERIEELLEEAKHVDLEEALKLIREAHKLAVEIGDPELLKLVAKVLRELLSSSSS
B10: il10ra_site1_sap_15_mot_HHH_b1_05357_000000034_0001_23_39_H_._HHH_b2_00918_0002_0000100001_0000001_0_0001 (protein)
chain: SSSSDERQRVLRLLIEIFRLMLRGDHEEARELLEEVERLAEELGDEALRKAVEIYEQALKSSSSS
B11: il10ra_site1_sap_15_mot_HHH_b2_00597_000000260_0001_41_55_H_._HHH_b2_05338_0001_0000200028_0000001_1_0001 (protein)
chain: SEEEFVKIAVEAAAEIANVPSFSVSFSNGTVEVTIEGDSPAARELERMVRFQAMALGVEVHVEIE
B12: il10ra_site1_sap_10_mot_HHH_b2_00943_af2_000000149_0001_1_17_H_._HHH_b2_02363_0001_0000300025_0000001_0_0001_af2pred_0001 (protein)
chain: SSSSDEKERVAQLSREIAELLEEGDREEAEKLLEEVEELAEELGDERLKLHVRFLKALLDSSSSS
B13: il10ra_site1_sap_15_mot_HHH_b2_02386_000000054_0001_1_20_H_._HHH_b1_07590_af2_0001_0000300009_0000001_0_0001 (protein)
chain: QEHTLIEAAVRLFALAARLSDVEVEFSNGKVEVTINGTSESAERLRRWLEIVARAHNLEVEVETE
B14: il10ra_site1_sap_15_mot_HHH_b2_02053_af2_000000006_0001_3_19_H_._HHH_b2_06464_0001_0000100006_0000002_0_0001 (protein)
chain: SSSSSHAERSAEIFLKAIKDALKAGDDEYARMALRFLKWLAEAANNEEVREIAEEARELIGSSSS
B15: il10ra_site1_sap_23_mot_HHH_b1_04771_000000013_0001_40_56_H_._HHH_b1_00861_0001_0000600044_0000002_0_0001 (protein)
chain: SSSSSEEKEELLRLLMELARALIRGDEEEARELLEELKELAEETNDEAAKKAVEIVEQALKSSSS
B16: il10ra_site1_sap_18_mot_39ab2cb694c8b9c1dc7e65c0d672c93e_0001_000000036_0001_53_65_H_._HHH_b1_04212_0001_0000500037_0000001_0_0001 (protein)
chain: SSSSDEELEEALRLSIEAFRAALRGNPEEAEKLLEEALQLAEEGGDERLAKQIESLLRALKSSSS
B17: il10ra_site1_sap_20_mot_HHH_b1_03531_000000273_0001_41_54_H_._HHH_b1_05519_0001_0000300028_0000001_0_0001 (protein)
chain: SSSSSEERREVFELIERAIKLHADGNREEAEEVLERAEEIAREAGDMLLLVQLEFLLRLIESSSS
B18: il10ra_site1_sap_25_mot_HHH_b1_04275_000000150_0001_22_39_H_._HHH_b1_04907_0001_0000300014_0000001_0_0001_af2pred_0001 (protein)
chain: SSSSSSDLSEEVVRLLREALEIDDPEEAREVAEQALELAEEGNNPELVFIARFLLRQLSSSSSSS
B19: il10ra_site1_normal_mot_HHH_b2_05944_000000135_0001_38_52_H_._HHH_b2_04207_0001_0000100002_0000001_0_af2pred_dldesign_0_af2pred (protein)
chain: SSSSSKAQELAENTLHAIKVLLEEGKPEEAKATYEYYKKVLEALGDPEALKYLDEEYAKLLSSSS
B20: il10ra_site1_normal_mot_HHH_b1_01011_000000096_0001_1_19_H_._HHH_b2_02684_af2_0001_0000300011_0000001_0 (protein)
chain: SSSSDEELEEYTRLAERFAEALYKSGDPEAARLLLRNLLQALKRLGDEELFERAEELLEELSSSS
B21: il10ra_site1_normal_mot_HHH_b1_08477_000000091_0001_40_57_H_._HHH_b1_05558_0001_0000500062_0000002_0 (protein)
chain: SSSSSRVEQAFKFAEALLKDGDPEAAHRIARIALELAEKEGDEELEELLRRLLEEIEEELGSSSS
B22: il10ra_site1_normal_mot_HHH_b2_05813_000000266_0001_1_19_H_._HHH_b1_02254_0001_0000100009_0000001_0 (protein)
chain: SSSSSDEEERVFQLLVRLQFLLDKGDEEQLRELLEEAKELAEELNDPVLRRAIEIIEELGSSSSS
B23: il10ra_site1_sap_19_mot_HHH_b1_06837_000000150_0001_20_37_H_._HHH_b2_00783_0001_0000100016_0000001_0_0001 (protein)
chain: SSSSDERHEALRLAAEALRAAYQKSDEEALQALWRLIRRLAREGDPELVRELEELAEEIINSSSS
B24: il10ra_site1_sap_26_mot_HHH_b1_03260_000000175_0001_42_57_H_._HHH_b1_06337_af2_0001_0000500021_0000001_0_0001 (protein)
chain: SSSSDEEAYEIIKRLARLLIRGNLEEAQELLEELKELAEELNDPALKRAVEIIQRAIEANSSSSS
B25: il10ra_site1_normal_mot_HHH_b2_08144_af2_000000046_0001_38_52_H_._HHH_b2_07064_af2_0001_0000600024_0000001_0 (protein)
chain: SSSSDEEVQEVYELSRRAAELHHDGNKEEAEELLERARELAKELNNPLLLIQVEFLLRLASSSSS
B26: il10ra_site1_normal_mot_ems_3hM_2400_000000184_0001_1_19_H_._HHH_b2_03037_0001_0000100006_0000001_0 (protein)
chain: SSSSDEEEREEVEEILEEAKHIEDEHERAQVLFEAFRRAWEIRDPEAVQLVLRVAARLLDSSSSS
B27: il10ra_site1_sap_25_mot_HHH_b1_01011_000000096_0001_1_19_H_._HHH_b2_01824_af2_0001_0000200005_0000001_1_0001 (protein)
chain: SSSSDAEHYVRAALRFARALYEAGDPEAARRILRAVIEALRRLGDEEAVEKAEELLEEIEKSSSS
B28: il10ra_site1_sap_9_mot_HHH_b2_03438_af2_000000049_0001_18_34_H_._HHH_b2_07904_0001_0000200033_0000002_0_0001 (protein)
chain: SSSSDVEELYRLLKEINEAVREGDEELFRKLVEELEELIEELGSMLFRIQLEFLERQWKEGSSSS
B29: il10ra_site1_sap_18_mot_HHH_b1_04818_af2_000000063_0001_42_55_H_._HHH_b1_04225_af2_0002_0000100001_0000002_0_0001_af2pred_0001 (protein)
chain: SSSSSRTQEVAELMREALELLNNGDKEEAERVAREALELAEQLNNEVLRIVAEYLERIIGSSSSS
B30: il10ra_site1_sap_17_mot_HHH_b2_05410_000000077_0001_20_37_H_._HHH_b2_08251_af2_0001_0000300013_0000001_0_0001_af2pred_0001 (protein)
chain: SSSSDDEAFEIILRALALARQLNDPETEERLRELARRYLEEGDERLLEEVEELLEELKERSSSSS
B31: il10ra_site1_sap_12_mot_ems_3hM_235_000000244_0001_46_64_H_._HHH_b2_07427_af2_0001_0000200015_0000001_0_0001 (protein)
chain: SSSSSSDLEELLEEIEEAIEEGDEEKAKELIQEALRLAFQNSDEEVLRRVWELAKELASSSSSSS
B32: il10ra_site1_normal_mot_HHH_b2_02337_000000026_0001_38_52_H_._HHH_b2_02790_0001_0000300024_0000001_0 (protein)
chain: SSSSDVEERAQELLEEAEELLKEGDREEFLEVVLEAVRLAHRARDEEILQALWRLVRELRSSSSS
B33: il10ra_site1_normal_mot_HHH_b1_06788_af2_000000238_0001_19_36_H_._HHH_b2_03036_0001_0000200010_0000002_0_af2pred_0001 (protein)
chain: SSSSSEYVKEVEKLLRRVAQLLREGDEEEAKELLKEAREIAEEAGNPILRVIVEFLLRILESSSS
B34: il10ra_site1_sap_18_mot_1cde5897893f3d1588f92be3b001cdf2_0001_af2_000000130_0001_54_65_H_._HHH_b2_02470_af2_0001_0000100008_0000001_0_0001 (protein)
chain: SSSSSSDLARRAYELLREALEIEDEEEREEVLEEAKRLAEEGNNLVLLWAIRYAAERDSSSSSSS
B35: il10ra_site1_normal_mot_HHH_b1_02997_000000220_0001_39_52_H_._HHH_b1_05859_0001_0000100005_0000001_0 (protein)
chain: SSSSDLSHELYELLHEAAELLFNGNPEEAEEVVQEAIELARELGNENALYNAEYLLRQIESSSSS
B36: il10ra_site1_sap_13_mot_d910f416147260c93593610934442136_0001_000000186_0001_34_49_H_._HHH_b1_02998_0002_0000200010_0000002_0_0001 (protein)
chain: SSSSDEVVRRAFELLEEAVKLDAEGNPEEAERILEEAEEVAEEGNNRLLQWQIRWLLELLSSSSS
B37: il10ra_site1_sap_20_mot_HHH_b1_08622_000000192_0001_23_40_H_._HHH_b2_06485_0001_0000100001_0000003_0_0001_af2pred_0001 (protein)
chain: SSSSSEFEEAIKAARESIEHALRLGDDEKVEQALRLLERLARDANDEEAEKFIEEVEELLSSSSS

These binders were tested against il10ra, Q13651 (assay: yeast display titration).

Apparent Kd, inactive:
B1 no binding seen
B2 no binding seen
B3 no binding seen
B4 no binding seen
B5 no binding seen
B6 no binding seen
B7 no binding seen
B8 no binding seen
B9 no binding seen
B10 no binding seen
B11 no binding seen
B12 no binding seen
B13 no binding seen
B14 no binding seen
B15 no binding seen
B16 no binding seen
B17 no binding seen
B18 no binding seen
B19 no binding seen
B20 no binding seen
B21 no binding seen
B22 no binding seen
B23 no binding seen
B24 no binding seen
B25 no binding seen
B26 no binding seen
B27 no binding seen
B28 no binding seen
B29 no binding seen
B30 no binding seen
B31 no binding seen
B32 no binding seen
B33 no binding seen
B34 no binding seen
B35 no binding seen
B36 no binding seen
B37 no binding seen

2 records picked at random from the list so far:
Apparent Kd, inactive:
B28 no binding seen
B37 no binding seen
